Measurements from “University of Dundee, Small-Polar-MMV Screening Library” (2021), ChEMBL document CHEMBL3988442.

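Viability assay of Plasmodium falciparum sporozoites; the read-out is not stated. The concentration is filed as 10 mM, unlikely as a test dose, so the dose is not known. Direction is inferred from retests: higher values go with lower viability. Strong results were mostly tested again. Of about 34,000 compounds tested this way, about 280 (0.84%) reached 50% or more in at least one test.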

Each number is a percent effect as filed. The record does not define 0% and 100%; most values in the screen are far below 50% and negative numbers occur (in some assays of this library far below -100). Compounds were drawn at random from those tested, without regard to their results. Two or more numbers in one place are separate tests of the same structure; such repeats can differ widely.

O=C(O)C(F)(F)F.[H][C@]12CN(C(=O)C3CCC3)C[C@@]1([H])C(=O)N(Cc1ccncc1)C2 read -4.388%.
CN(Cc1ccccc1)C(=O)CCNc1ncccc1C#N read -0.1304%.
O[C@H]1CCN(CCCOc2ccccc2F)C[C@@]12CCCO2 read 16.91%.
CC(C)N(C)Cc1cncc2c1CCN(C1CCOCC1)C2.Cl.Cl.Cl read 0.1733%.
O=C(O)C(F)(F)F.O=C(O)C(F)(F)F.[H][C@@]12CN(Cc3ccc(C)s3)C[C@@]1([H])N(Cc1ccncc1)C(=O)CO2 read -5.109%.
CCN1CCN(CC(O)c2ccc(OC(F)(F)F)cc2)CC1 (centres unmarked) read 11.2%.
Cc1noc(C)c1-c1cccc(C2CCCNC2)n1 (centres unmarked) read -2.524%.
CCS(=O)(=O)N1CCCC(c2ccnc(N(C)C)c2)C1 (centres unmarked) read -2.026%.
CCn1cc(CNC(=O)CCc2nnc(-c3ccc(C)s3)o2)cn1 read -15.02%.
N#CCCN(C(=O)CN1CCCC1c1ccccc1Cl)c1ccccc1 (centres unmarked) read -8.452%.
CN(C)c1cc2c(nn1)CCN(C(=O)Cc1ccc3c(c1)CCO3)C2 read -13.49%.
O=C(c1cccc(S(=O)(=O)NCCCn2cccn2)c1)N1CCOCC1 read -2.544%.
N#CCCN(Cc1cccnc1)C(=O)c1cccc(-n2cnnn2)c1 read 8.233%.
Cc1nc(C)n(CC2CN(CCCOc3ccccc3)CCO2)n1 (centres unmarked) read 2.301%.
CN(C(=O)CN1CCCC1Cc1ccccc1)c1ccccc1 (centres unmarked) read 2.305%.
CS(=O)(=O)N1CCc2[nH]cnc2C12CCN(C(=O)c1ccc[nH]1)CC2 read -13.4% & -13.84%.
N#Cc1cn(CC(=O)NC2CC2)c2ccc(Br)cc2c1=O read -6.009%.
COCC(=O)N1CCC2(COCc3cnc(NCc4ccco4)nc32)C1 (centres unmarked) read 4.123%.
CCN(Cc1ccoc1)C(=O)c1ccc(C)c(S(N)(=O)=O)c1 read -10.88%.
COc1ccc(C)cc1CN(C)CC(=O)NC1(C)CCS(=O)(=O)C1 (centres unmarked) read 11.24%.
CC(=O)NCC1CCN(C(=O)CCOc2ccc(C(C)C)cc2)CC1 read -7.382%.
Cc1ccc(CNC(=O)CN2CCN(CC(O)c3ccco3)CC2)cc1.Cl.Cl (centres unmarked) read -3.911%.
CCc1nc(CN2CCN(C(C)c3nc(C4CC4)no3)CC2)no1 (centres unmarked) read -3.781%.
COCCN1CCC(c2nc3cc(C)ccc3[nH]2)CC1 read 20.99%.
Cc1ccc(OC2(C(=O)O)CCN(C(=O)c3ccccc3F)CC2)cn1 read -8.269%.
COc1ccc(C(C)N(C)Cc2c(C(C)C)[nH]c3ncccc23)cc1 (centres unmarked) read 5.39%.
O=C(CCCOc1ccccc1Cl)N1CCCC(n2cncn2)C1 (centres unmarked) read -0.6441%.
COc1ccc(CN2CCC(c3nnc(-c4scnc4C)o3)CC2)cc1 read 2.51%.
Cc1nccc(CNC(=O)NCCOc2ccc(F)c(F)c2)n1 read -14.94%.
Cn1nccc1CCC(=O)N1CCC(c2cnccn2)CC1 read -4.089%.
CCNC(=O)[C@@H]1C[C@@H](N)CN1C(=O)c1cc2ccccc2[nH]1 read 0.4325%.
Cn1ccc(CN2CCC(CC(=O)NC3CCCC3)CC2)cc1=O read 1.986%.
[H][C@]12CC[C@@]3(N=C(C)NC3=O)[C@@]1([H])CN(C(=O)NCc1cccc(F)c1)C2 read -13.91%.
Cc1nn(C)c(C)c1C1CCCN1CC(=O)Nc1ccncc1 (centres unmarked) read -9.12%.
CC(=O)N1CCCCCC1C1CCN(c2ncccc2C#N)CC1 (centres unmarked) read -1.887%.
Cc1n[nH]c(C)c1C1COCCN1C(=O)Cc1cccc(F)c1 (centres unmarked) read -1.771%.